Experimental data: PubChem BioAssay AID743454 (Peter MacCallum Cancer Centre, 2014)
Screen: 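Search for knock-downs that restore vorinostat killing in resistant colon cancer cells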 (primary screen). Cell system: human HCT116-VR colon cancer cells, selected for vorinostat resistance. Reagents: siRNA pool against human genes, 40 nM siRNA pool. Duration: vorinostat for 24 h, read-out about 72 h after transfection. Challenge: vorinostat at 2.5 µM final. Measurement: 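Two measures, CellTiter-Fluor viability and luminescent caspase 3/7 activity, each as fold change against same-plate mock wells, mean of duplicates, then screen-wide robust z-score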. Direction: viability robust z-score: higher = more viable cells than screen typical; caspase robust z-score: higher = more caspase 3/7 activity than screen typical. Active means: 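Hits are knock-downs in viability class RV1/RV2 or caspase class CA1/CA2, excluding ones that killed cells in the no-drug cell-count arm; hits then retested with single siRNAs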.
In all, the deposit lists about 18,000 reagents; this is a part drawn at random. Over the whole deposit, 450 (2.5%) were called active. 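Single biological run; no consistent viability z cut-off exists, so the class columns, not z-scores, define the calls.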

gene symbol,viability hit class,caspase hit class,viability robust z-score,caspase robust z-score,outcome
ZNF35,no change,no change,0.64,0.65,inactive
SMN2,no change,no change,-1.45,-0.37,inactive
NELFE,no change,no change,0.58,-0.6,inactive
EMC7,no change,no change,-0.55,2,inactive
ZAR1,no change,no change,0.32,0.24,inactive
LHX5,no change,no change,-0.04,0.54,inactive
HMOX2,no change,no change,-0.32,0.91,inactive
KCNK2,no change,no change,-0.34,-0.99,inactive
SNRNP35,no change,no change,-1.42,0.83,inactive
LTB,no change,no change,1.11,0.03,inactive
OR8K5,no change,no change,-0.08,0.42,inactive
DSCR10,no change,no change,-0.02,-0.64,inactive
YBX1,no change,no change,0.4,0.6,inactive
BTBD6,no change,no change,-0.25,-0.31,inactive
ZNF462,no change,no change,-2,0.28,inactive
CERS6,no change,no change,0.36,-0.4,inactive
BOLA1,no change,no change,-1.02,-0.14,inactive
TXNRD2,no change,no change,-1.4,1.17,inactive
FBXO34,no change,no change,0.15,1.84,inactive
AQP3,no change,no change,1.15,-0.26,inactive
VEGFA,no change,no change,1.7,-0.92,inactive
TMEM190,no change,no change,-0.6,-0.48,inactive
CDC20B,no change,no change,0.81,0.26,inactive
ANKRD22,no change,no change,1.64,-0.59,inactive

Next part (5 carried over from the part before).
gene symbol,viability hit class,caspase hit class,viability robust z-score,caspase robust z-score,outcome
AQP3,no change,no change,1.15,-0.26,inactive
VEGFA,no change,no change,1.7,-0.92,inactive
TMEM190,no change,no change,-0.6,-0.48,inactive
CDC20B,no change,no change,0.81,0.26,inactive
ANKRD22,no change,no change,1.64,-0.59,inactive
TEX35,no change,no change,0.28,0.18,inactive
RORC,no change,no change,-0.18,0.06,inactive
GALNS,no change,no change,0.84,1.21,inactive
RNF135,no change,no change,-0.85,1.42,inactive
TAS2R10,no change,no change,1.12,-0.22,inactive
RTP2,no change,no change,-0.52,2.13,inactive
PSMC3IP,no change,no change,-0.05,-0.58,inactive
HSP90B1,no change,no change,0.08,1.04,inactive
AP4S1,no change,no change,-1.12,1.82,inactive
CDCA4,no change,no change,0.42,0.16,inactive
CBS,no change,no change,1.29,-0.44,inactive
CES2,no change,no change,0.86,-0.7,inactive
KRTAP5-6,no change,no change,-0.79,-0.35,inactive
IFNA16,no change,CA2 (caspase activation),-0.94,6.53,active
COL4A5,no change,no change,0.83,-0.3,inactive
